Measurements as given in patent US11673323B2, “Fluorescent binders for use in monitoring additive manufacturing processes” (General Electric Company, priority 2020, dated 2023).

Assay: Fluorescence of binder solution droplets on metal powder layer excited with 365 nm UV light
Conditions: droplet on layer of Rene 108 nickel alloy powder

Row | SMILES | Fluorescence | Fluorescence (listed as Sample H)
1 | CCCN(CCO)c1nc(Nc2ccccc2)nc(Nc2ccc(/C=C/c3ccc(Nc4nc(Nc5ccccc5)nc(N(CCO)CCO)n4)cc3S(=O)(=O)[O-])c(S(=O)(=O)[O-])c2)n1.[Na+].[Na+] [FB 28] | Quenched | –
2 | O=S(=O)([O-])c1cc(Nc2nc(CCO)nc(Nc3ccccc3)n2)ccc1/C=C/c1ccc(Nc2nc(NCO)nc(Nc3ccccc3)n2)cc1S(=O)(=O)[O-].[Na+].[Na+] [FB 85] | Quenched | –
3 | CCCN(CCC)c1nc(Nc2ccccc2)nc(Nc2ccc(/C=C/c3ccc(Cc4nc(Cc5ccccc5)nc(N(OCC)OCC)n4)cc3S(=O)(=O)[O-])c(S(=O)(=O)[O-])c2)n1.[Na+].[Na+] [FB 113] | Quenched | –
4 | O=S(=O)([O-])c1ccccc1C=Cc1ccc(-c2ccc(C=Cc3ccccc3S(=O)(=O)[O-])cc2)cc1.[Na+].[Na+] [FB 351] | Bright, homogenous signal | bright, homogenous fluorescence
